According to US20170074857A1, “MEDICATION ADHERENCE MONITORING DEVICE” (UNIVERSITY OF FLORIDA RESEARCH FOUNDATION, INC., priority 2014, published 2017):
Some results were stated once for a whole list of compounds, not compound by compound. At least one compound was matched to its structure with a doubt left.

Assay: Example 4a: noncompartmental pharmacokinetics of exhaled 2-butanone and 2-pentanone by mGC
Type: in vivo, human
Conditions: replicates 1-6
Source text: Test Materials. […] 2-butanol was purchased from Penta Manufacturing Company (Fairfield, N.J.). 2-pentanol and L-carvone were purchased from Sigma-Aldrich (St. Louis, Mo.). […] 2-pentanone was also used as a taggant, but we hypothesized that its inherent volatility would allow exhalation without need for metabolism. L-carvone tastes like spearmint and was used as a flavor mask. All capsules were filled on the day of the experiment.
Subject Enrollment and Protocol. This protocol (20100140) was approved by the Western Institutional Review Board (Olympia, Wash.). Healthy subjects (n=5) aged >18 years of age and of either sex were recruited. Informed, written consent was obtained from all enrolled subjects. The study consisted of a single experimental limb with six replicates per subject. Therefore, for five subjects with six replicated experiments, a total of 30 studies were performed. Subjects were free to eat ad lib prior to participation in the study. […]
2-Butanone and 2-Pentanone Measurement in Human Breath by mGC. Breath specimens were analyzed “real-time” to measure the concentrations of 2-butanone and 2-pentanone using the mGC (Xhale, Inc. Gainesville, Fla.) as previously described. […]
Pharmacokinetic Analysis. […] The area under concentration versus time curve (AUC) was calculated using the linear trapezoidal rule. […]

For `CCC(C)=O` [Formulation 2-butanone, 2-butanone], the “TThresh range between replicates” value was 5 to 7 min.
